Reference: PMC8539224
These are yes or no findings as the source states them, for the method shown. Some entries that bind do so weakly or less than the wild type.

Amino acid sequences for entries named in this document (tags omitted). A change or cut given only in a name is not applied to a line headed by its entry.
UniProt P92978: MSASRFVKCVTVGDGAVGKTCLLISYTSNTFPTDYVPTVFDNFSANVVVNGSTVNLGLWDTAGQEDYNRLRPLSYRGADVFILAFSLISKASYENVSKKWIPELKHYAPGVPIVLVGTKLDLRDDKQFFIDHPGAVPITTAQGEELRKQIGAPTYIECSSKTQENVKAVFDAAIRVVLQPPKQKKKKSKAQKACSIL

The substances below were run against T1, RIC2 (Arabidopsis downstream effector of ROP1) (Arabidopsis thaliana) (UniProt Q8GYU0) (assay: two-hybrid; S. cerevisiae AH109 co-transformed with AtROP1 and its mutants in pGADT7-Dest and GEF2 or RIC2 in pGBKT7; leu- trp- selection for transformation, his- ade- selection for interaction (0, 1, 3 or 10 mM 3-AT where required)).
T1 sequence: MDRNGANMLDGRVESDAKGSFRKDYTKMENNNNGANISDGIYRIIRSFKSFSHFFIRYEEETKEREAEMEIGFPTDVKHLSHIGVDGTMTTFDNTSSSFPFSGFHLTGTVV

Substance	binding
Arabidopsis ROP1 GTPase S97A (from UniProt P92978 1-197)	binds
Arabidopsis ROP1 GTPase, constitutive active (CA, G15V) (from UniProt P92978 1-197)	binds
Arabidopsis ROP1 GTPase, wild type (AtROP1 WT) (from UniProt P92978 1-197)	binds

Second part, the substance after the results:

binding	Substance
binds	Arabidopsis ROP1 GTPase S97E (from UniProt P92978 1-197)
binds	Arabidopsis ROP1 GTPase, constitutive active (G15V) with S97A (from UniProt P92978 1-197)
binds	Arabidopsis ROP1 GTPase, constitutive active (G15V) with S97E (from UniProt P92978 1-197)
